Measurements reported in PubChem BioAssay AID686937 (Drosophila RNAi Screening Center, 2013)

Purpose: 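Genes in the fly needed for secretion of protein constitutively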 (primary screen)
System: Drosophila S2 cells expressing secreted horseradish peroxidase
Reagent: long dsRNA against Drosophila genes
Timing: about 5.5 days (5 days dsRNA, then 12 h reporter induction)
Treatment: reporter expression induced after 5 days of dsRNA, read 12 h later; inducer not stated
Measurement: 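After 5 days of dsRNA and 12 h of reporter induction, medium peroxidase read by chemiluminescence and scored as per-plate z-score; higher values mean more reporter released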
Direction: z-score: higher = more reporter secreted into medium
The deposit covers about 23,000 reagents; shown is an unselected part of those with a known target gene and a result. 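Reduced-secretion tags in replicate 1 do not always agree with the z-scores; no criterion for assigning the tags was given.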 Names joined by + are all predicted targets of the reagent. Not all columns of the deposit are shown. Not stated in the record: the amount of reagent.

Gene | amplicon | z-score, replicate 1
His4:CG33883 + His4:CG33889 + His4:CG33899 + 20 more | DRSC21268 | -1.6
stx (stuxnet) | DRSC18442 | -1.54
stx (stuxnet) | DRSC18443 | -0.41
CG3097 | DRSC18275 | 0.43
CG34393 | DRSC00419 | 0.56
CG34393 | DRSC00710 | 0.26
Arts + Apl | DRSC10349 | 0.38
Srpk79D (Serine-arginine protein kinase at 79D) | DRSC11668 | 0.56
Srpk79D (Serine-arginine protein kinase at 79D) | DRSC11856 | 0.3
CCT8 (Chaperonin containing TCP1 subunit 8) | DRSC07130 | -0.09
CG13690 | DRSC00359 | 0.46
Ir67b (Ionotropic receptor 67b) | DRSC09876 | 0.64
CG10345 | DRSC14138 | 0.35
Ten-m (Tenascin major) | DRSC11664 | 0.37
Ten-m (Tenascin major) | DRSC11882 | 0.27
boss (bride of sevenless) | DRSC16916 | 0.27
CG10347 | DRSC19352 | 0.39
Pcif1 (Phosphorylated CTD-interacting factor 1) | DRSC11655 | 0.27
CG4613 | DRSC10435 | 0.56
CR43096 + CG43060 | DRSC12654 | 0.1
Ino80 (INO80 complex subunit) | DRSC14760 | 0.18
Ino80 (INO80 complex subunit) | DRSC15333 | 0.45
Ino80 (INO80 complex subunit) | DRSC15501 | 0.32
CG32095 | DRSC22615 | -0.08
swa (swallow) | DRSC18842 | 0.53
CG31008 | DRSC14028 | 0.41
Mlf (Myelodysplasia/myeloid leukemia factor) | DRSC07472 | -2.03
CG15464 (retired record) | DRSC18047 | -0.04
CG15464 (retired record) | DRSC22086 | 0.16
scyl (scylla) | DRSC11392 | 0.51
Spn53F (Serpin 53F) | DRSC06022 | 0.24
nyo (nyobe) | DRSC15029 | 0.38
nyo (nyobe) | DRSC15030 | 0.26
Pi3K59F (Phosphatidylinositol 3-kinase 59F) | DRSC04640 | 0.14
CG2604 | DRSC12313 | 0.44
CG17486 | DRSC07752 | 0.7
fon (fondue) | DRSC02507 | 0.37
CkIIalpha-i1 (CKII-alpha subunit interactor-1) | DRSC11115 | 0.56
CG9512 | DRSC20189 | 0.46
jub (Ajuba LIM protein) | DRSC19367 | 0.33
p-cup (presidents-cup) | DRSC19513 | -0.97
ebd2 (earthbound 2) | DRSC11682 | 0.25
dco (discs overgrown) | DRSC16929 | -0.08
spd-2 (spindle defective 2) | DRSC09682 | 0.31
CG1441 | DRSC06448 | 0.35
CG9316 | DRSC03195 | 0.14
CG5697 | DRSC15858 | 0.25
Ser (Serrate) | DRSC16856 | 0.34
CG34165 | DRSC01970 | -2.87
Pngl (PNGase-like) | DRSC04914 | 0.44
Spn55B (Serpin 55B) | DRSC07694 | 0.34
Spn55B (Serpin 55B) | DRSC21862 | 0.66
Pex13 (Peroxin 13) | DRSC06877 | 0.13
Fpgs1 (Folylpolyglutamate synthase 1) | DRSC19857 | 0.33
ClpX (Caseinolytic protease chaperone subunit) | DRSC15592 | 0.52
CG15200 | DRSC19647 | 0.24
Eb1 | DRSC05016 | -0.18
Ir64a (Ionotropic receptor 64a) | DRSC09759 | 0.5
Ir64a (Ionotropic receptor 64a) | DRSC09760 | 0.35
hng2 (hinge2) | DRSC16412 | 0.21
Drep4 (DNA fragmentation factor-related protein 4) | DRSC03408 | 0.6
trk (trunk) | DRSC03625 | -0.37
Gyc89Db (Guanylyl cyclase at 89Db) | DRSC15009 | 0.07
c(2)M (crossover suppressor on 2 of Manheim) | DRSC01922 | 0.1
MESR6 (Misexpression suppressor of ras 6) | DRSC10720 | 0.15
lncRNA:CR43485 (long non-coding RNA:CR43485) | DRSC08059 | -0.1
CG14488 | DRSC06460 | 0.56
CG34229 | DRSC06316 | 0.42
T3dh + pgc | DRSC04659 | 0.42
CG7191 | DRSC03022 | 0.7
CR42785 (pseudo) | DRSC04962 | 0.39
eRF1 (eukaryotic translation release factor 1) | DRSC11779 | -0.88
CG4297 | DRSC00651 | 0.22
Vinc (Vinculin) | DRSC18728 | 0.49
Obp47b + CG7741 | DRSC06330 | 0.35
Rim (Rab3 interacting molecule) | DRSC16224 | 0.33
Rim (Rab3 interacting molecule) | DRSC16225 | -3.14
Rim (Rab3 interacting molecule) | DRSC16226 | 0.34
Rim (Rab3 interacting molecule) | DRSC16227 | 0.49
Rim (Rab3 interacting molecule) | DRSC22406 | -0.3
Gr22b (Gustatory receptor 22b) | DRSC20911 | -1.71
CG11037 | DRSC11631 | 0.14
